Reference: PMC10163288
This is one part of the list.

B1: il10ra_site1_sap_17_mot_aff62e40800cfbf30c5099bd910ef069_0001_000000130_0001_18_32_H_._4d38eb9c16805ff794392fe48eb80f74_0001_0001_0000200012_0000001_0_0001 (protein)
chain: SSSSDDEALELSLEAFRLALHGNPEEAEEVAEEALRLARELGDERLAEVIEHMLESIRSASSSSS
B2: il10ra_site1_sap_22_mot_39ab2cb694c8b9c1dc7e65c0d672c93e_0001_000000036_0001_53_65_H_._HHH_b1_08027_0001_0000400020_0000002_0_0001 (protein)
chain: SSSSSEEEELTELLHEIMELYKKGDPRAEELVREAQELAEELGNRAAEFILRILLEALELKSSSS
B3: il10ra_site1_sap_21_mot_HHH_b1_01082_af2_000000031_0001_3_19_H_._HHH_b2_02420_0001_0000100014_0000001_0_0001_af2pred_0001 (protein)
chain: SSSSSSEKRAARLLLESAERISDPRLARAALRLAVEAAREGGDEELLEELEKVLEELEGSSSSSS
B4: il10ra_site1_normal_mot_2c1a291787c6f40772924d4e9068d803_0001_af2_000000187_0001_34_48_H_._ems_3hC_645_0001_0000400018_0000001_0_af2pred_0001 (protein)
chain: SSSEEEVFHLVAEVHLVAVKVGDPEAEEIAKELAKLAAEALIENDEEKLKEVSKLLEEFLEEFSS
B5: il10ra_site1_sap_19_mot_HHH_b1_03333_000000091_0001_1_17_H_._HHH_b1_05023_af2_0001_0000400030_0000001_0_0001_af2pred_0001 (protein)
chain: SSSSDDEEFLRLSLKFIEFAIEEGDEEAARKLIRAARQIAERLGNEEIQERLEELLERLNSSSSS
B6: il10ra_site1_normal_mot_HHH_b1_02809_af2_000000277_0001_40_57_H_._HHH_b2_04321_0001_0000300034_0000002_0_af2pred_0001 (protein)
chain: SSSSDELIQRVAELYLKASELLEEGDDEEVERIIEELKELAKEYGDEKVRLAAEFLEAMLKSSSS
B7: il10ra_site1_sap_23_mot_HHH_b2_03328_af2_000000127_0001_1_19_H_._HHH_b2_01688_0001_0000100004_0000002_0_0001 (protein)
chain: SSSSDELLQRAAELVLEALRALLHGNPEEAEELLEEALELARELGDESMARVIEDMLASTESSSS
B8: il10ra_site1_normal_mot_HHH_b1_02997_000000220_0001_39_52_H_._HHH_b2_00132_0001_0000100012_0000001_0_af2pred_0001 (protein)
chain: SSSSSKESHRIVELIREAIELYAEGNPEEAEEVLREAEELAEEAGNEEALILVEFILERNRSSSS
B9: il10ra_site1_sap_18_mot_HHH_b1_02665_000000293_0001_1_18_H_._HHH_b2_03533_0001_0000400011_0000001_1_0001_af2pred_0001 (protein)
chain: SSSSSSEEEEERVEELLERAEEIPNPKERFKVIREAAELAAELRNPELERLVAEFIKRLLSSSSS
B10: il10ra_site1_normal_mot_HHH_b2_01310_000000089_0001_41_55_H_._HHH_b2_01682_af2_0002_0000800018_0000001_0_af2pred_0001 (protein)
chain: SSSSSSDLEELIEQVEELIERNDEEEAIRVLRELVQLAQKKNDEEAFRAILELAELIKSSSSSSS
B11: il10ra_site1_sap_18_mot_HHH_b1_05357_000000034_0001_23_39_H_._HHH_b1_00213_0001_0000400010_0000001_0_0001 (protein)
chain: SSSSSLEQRAFELMVRAYLLANQGDPEEAEEVLKEAEEVAREGNDRALVLAIEVNLERLESSSSS
B12: il10ra_site1_sap_20_mot_b26a303360aa2756ef5b79665ce52f45_0001_000000179_0001_1_11_H_._HHH_b1_04307_0001_0000100006_0000002_0_0001_af2pred_0001 (protein)
chain: SSSSTLEEDVRSALKAAKILLERGDPEKAEEAAKQAKFLAELANNPELKEEIERLLEEIGSSSSS
B13: il10ra_site1_sap_24_mot_HHH_b1_01901_000000286_0001_1_19_H_._HHH_b1_04306_af2_0001_0000100002_0000002_0_0001 (protein)
chain: SSSSDEREIWQLMVEVYHLAQEGDPKWEELLEEVQELAEELGDPQLRELVEAAERAIRSNSSSSS
B14: il10ra_site1_normal_mot_HHH_b1_06789_af2_000000041_0001_1_20_H_._HHH_b1_08175_0001_0000200006_0000002_0_af2pred_0001 (protein)
chain: SSSSSSAETDVESAEKAVEILLKQGDEEKAEEVVRIAIESARAANSPLAELLERLLEEITSSSSS
B15: il10ra_site1_normal_mot_HHH_b1_05056_000000217_0001_1_20_H_._HHH_b2_01322_0001_0000500053_0000001_0 (protein)
chain: SSSSDEEEFARIVQEVVRLAIRLSDPEALQEVWELVRRYFREGDPRILEELEELLEELEKSSSSS
B16: il10ra_site1_normal_mot_HHH_b1_06363_000000103_0001_21_38_H_._HHH_b2_01051_0001_0000400032_0000001_0_af2pred_0001 (protein)
chain: SSSSSDEHREEVEELLEEAKKIDDDKERWQVLLEAFHIAFENNDEELEEEVKEVAIKLVASSSSS
B17: il10ra_site1_normal_mot_HHH_b1_06341_af2_000000167_0001_17_35_H_._HHH_b1_03523_0001_0000100001_0000002_0 (protein)
chain: SSSSDREEITEKLEEELQELLENNDHERFLRLLEEMARIAIRLRDPELSRIIIKLAREFASSSSS
B18: il10ra_site1_normal_mot_HHH_b2_00475_000000107_0001_44_57_H_._HHH_b1_01897_af2_0001_0000400025_0000001_0 (protein)
chain: SSSSSQEVAQILFEAIHRLFEGNPEEARKLAEEAEEVAQELGDPELERYVRIALHFIEAHSSSSS
B19: il10ra_site1_sap_20_mot_HHH_b2_04327_000000030_0001_41_55_H_._HHH_b2_04747_af2_0001_0000800037_0000002_0_0001 (protein)
chain: SSSSSSEEIYRLLRRAMELRDNGDHEEARELLERAERLAEENNSPVMRVAVRYALEVVEESSSSS
B20: il10ra_site1_sap_16_mot_HHH_b2_00984_000000042_0001_1_20_H_._4c4ac6cabe4c261757e68d3976ab26f5_0001_af2_0001_0000600027_0000001_0_0001 (protein)
chain: SSSSDEDEEYIRMTLEFAKWLIEEGDERAARHFLRAAIELAERLNDEEILEELERLLQELSSSSS
B21: il10ra_site1_sap_21_mot_HHH_b2_00730_000000084_0001_1_16_H_._HHH_b1_07822_0001_0000100001_0000002_0_0001_af2pred_0001 (protein)
chain: SSSSSISERILELLREALELINRGDPEEAEEVLEEAQRLAEEAGNEVFRWAVESLLKRLKSSSSS
B22: il10ra_site1_sap_22_mot_HHH_b1_02665_000000293_0001_1_18_H_._HHH_b1_08591_af2_0001_0000500011_0000001_0_0001 (protein)
chain: SSSSSEEVEELLEEARELLEKGNPEEAIEVLARAVRFALRLGDEELLQLVWELVREVAETSSSSS
B23: il10ra_site1_sap_26_mot_HHH_b1_01082_af2_000000031_0001_3_19_H_._HHH_b2_01541_af2_0001_0000500046_0000001_0_0001 (protein)
chain: SSSSNLEELVRAALRLAEQAVKWGDPRAAELLLKALLEALERNNDPELVREVEELLEEIRGSSSS
B24: il10ra_site1_sap_19_mot_HHH_b1_03900_000000129_0001_1_16_H_._HHH_b2_05682_0001_0000300033_0000001_1_0001 (protein)
chain: SSSSDTEEYAEEVAEQLRELAEEGDREEFARLMLEALQFVIERTNAEALRILWRVVKELASSSSS
B25: il10ra_site1_normal_mot_HHH_b1_02809_af2_000000277_0001_40_57_H_._HHH_b2_02247_af2_0001_0000100005_0000002_0_af2pred_0001 (protein)
chain: SSSSDEAEKAIRILLQAAKRLEEQGNEEFAKLALRDALAAAKAINDEELFKEVRRLLEELNSSSS
B26: il10ra_site1_normal_mot_HHH_b1_00666_000000226_0001_43_56_H_._HHH_b1_07038_0001_0000200019_0000001_0 (protein)
chain: SSSSDIEEEIERLIEEARELLEEGDPEEANRVLQRAVQLAFRASNEELLEEIWRLALESASSSSS
B27: il10ra_site1_normal_mot_e1dd4851c59bc1cdde016f988f6856bd_0001_1_000000200_0001_16_31_H_._HEEHE_1920_af2_0001_0000800009_0000001_0_af2pred_dldesign_0_af2pred (protein)
chain: SKVEKLRLALDYLAEKLNVPKVVVEEVDGKVVVTITGTSPAAEALARAAEYVADSLGLEVEVRIV
B28: il10ra_site1_normal_mot_HHH_b2_02116_af2_000000165_0001_41_55_H_._ems_3hC_506_0001_0000700023_0000001_0_af2pred_0001 (protein)
chain: SSTAAEVAKRVLEERFEEAEENNDKEALRQIALLARAAARLFRDPELEKFAEELKRLAEELDSSS
B29: il10ra_site1_normal_mot_HHH_b1_07743_af2_000000164_0001_42_55_H_._HHH_b2_01433_0001_0000200017_0000001_0 (protein)
chain: SSSSSEEARRVAELNVEADELALRGNPEEAREVLEEAREIAEEAGNDILRAQVESARRLVESSSS
B30: il10ra_site1_sap_13_mot_HHH_b1_03574_000000194_0001_1_18_H_._HHH_b2_00707_0001_0000100003_0000002_0_0001 (protein)
chain: SSSSDKEVHQIAFEALVRAQRLADRGDPEEAQRLLEELVEELEELGNPRLAEAARVAIEWFSSSS
B31: il10ra_site1_sap_21_mot_HHH_b1_01879_000000050_0001_1_18_H_._HHH_b1_04482_0001_0000100001_0000001_0_0001 (protein)
chain: SSSSDEVEELFEQLKELAEELNDRATEFLAKQALKAYRLSGDELVEEALRNLVRLLEERLNSSSS
B32: il10ra_site1_sap_16_mot_HHH_b1_04905_af2_000000228_0001_1_17_H_._d19391ccd5e4f9f9722e25c964c800ff_0001_af2_0001_0000700028_0000001_0_0001 (protein)
chain: SSSSDEAYEIAEEAIERAIKLLRNGNPEEAEELLREAIELVEELGNWAAVWALRHLLRLVSSSSS
B33: il10ra_site1_normal_mot_8756ee2cf497b5429c717dfc0c0bcfd6_0001_000000186_0001_1_13_H_._HHH_b1_08028_0001_0000200020_0000001_1_af2pred_0001 (protein)
chain: SSSSSSTEEVARLSEEALELAQKDPEEAREVLERAREIAEELGNAVLEAIIRFLEELIERDSSSS
B34: il10ra_site1_normal_mot_HHH_b2_00984_000000042_0001_1_20_H_._HHH_b2_03422_0001_0000100005_0000001_0 (protein)
chain: SSSSDEEVQEEVERLLEEAEHIEDPKELNRVLLEALQLAIQAQDEELLQLVWEVIKKLAENSSSS
B35: il10ra_site1_sap_11_mot_HHH_b1_03873_af2_000000091_0001_1_14_H_._456536b65d10dbd81ff7701267a43f31_0001_1_0001_0000800029_0000001_0_0001_af2pred_dldesign_0_af2pr … (protein)
chain: SLRDILERLLETRDPALVDEAEAAATAAAEADPNNLKAILTLQALRAYRLTGDPSIVEQALNIAE
B36: il10ra_site1_normal_mot_HHH_b1_00992_000000182_0001_23_40_H_._HHH_b1_08435_0001_0000300017_0000002_0 (protein)
chain: SSSSSDAEEYLELSLRFAKFLAENGDPEAARRILHAAIDIARKNGDEEIVQELEELLEELSSSSS
B37: il10ra_site1_normal_mot_HHH_b1_04514_000000156_0001_1_18_H_._HHH_b1_03241_0001_0000100007_0000001_0 (protein)
chain: SSSSYEEVKELIEEIIELAREGNPEEAEKVLRELERLAEELNNPAIRFVVRLLEEVIERQSSSSS

target: il10ra, Q13651; assay: yeast display titration

Binder	apparent Kd
B1	inactive: no binding seen
B2	inactive: no binding seen
B3	inactive: no binding seen
B4	inactive: no binding seen
B5	inactive: no binding seen
B6	inactive: no binding seen
B7	inactive: no binding seen
B8	inactive: no binding seen
B9	inactive: no binding seen
B10	inactive: no binding seen
B11	inactive: no binding seen
B12	inactive: no binding seen
B13	inactive: no binding seen
B14	inactive: no binding seen
B15	inactive: no binding seen
B16	inactive: no binding seen
B17	inactive: no binding seen
B18	inactive: no binding seen
B19	inactive: no binding seen

Given with each value named: entries from further up.
B3
  apparent Kd: inactive: no binding seen
B4
  apparent Kd: inactive: no binding seen

Going on with the list.

Binder	apparent Kd
B20	inactive: no binding seen
B21	inactive: no binding seen
B22	inactive: no binding seen
B23	inactive: no binding seen
B24	inactive: no binding seen
B25	inactive: no binding seen
B26	inactive: no binding seen
B27	inactive: no binding seen
B28	inactive: no binding seen
B29	inactive: no binding seen
B30	inactive: no binding seen
B31	inactive: no binding seen
B32	inactive: no binding seen
B33	inactive: no binding seen
B34	inactive: no binding seen
B35	inactive: no binding seen
B36	inactive: no binding seen
B37	inactive: > 786 nM
